Test results reported in patent publication US20220403022A1.

What follows are binders tested against cynomolgus monkey TIGIT ECD expressed on the CHO-S cell surface (cynomolgus monkey) (assay: flow cytometry on CHO-S cells expressing cynomolgus monkey TIGIT ECD).

Row | binding | Binder
1 | binds | 3964A06 (antibody, human IgG1, V domains shown) VH: EVQLVQSGSELKKPGASVKVSCKASGYTFTAYPMNWVRQAPGQGLEWMGWINTNTGNPTYAQGFTGRFVFSLDTSVSTAYLQISSLKAEDTAVYYCARVGGYSVYDYAFDIWGQGTMVTVSS VL: DIQLTQSPSFLSASVGDRVTITCRASQGISSYLAWYQQKPGKAPKLLIYAASTLQSGVPSRFSGSGSGTEFTLTISSLQPEDFATYYCQQLNSYPTFGGGTKVEIK
2 | binds | 3966C11 (antibody, human IgG1, V domains shown) VH: EIQLVQSGSELKKPGASVKVSCKASGYTFTSYPMNWVRQAPGQGLEWMGWINTNTGNPTNAQGFTGRFVFSLDTSVSTAYLQISSLKAEDTAVYYCARVGGYGGYDYAFDIWGQGTMVTVSS VL: DIQLTQSPSFLSASVGDRVTITCRASQGISSYLAWYQQKPGKAPKLLIYAASTLQSGVPSRFSGSGSGTEFTLTISSLQPEDFATYYCQQLNSYPTFGGGTKLEIK
3 | binds | 3965D08 (antibody, human IgG1, V domains shown) VH: EVQLVQSGSELKKPGASVKVSCKASGYTFTSYPMNWVRQAPGQGLEWMGWINTNTGNPTYAQGFTGRFVFSLDTSVSTAYLQISSLKAEDTAVYYCARTGYSGSYYWFDPWGQGTLVTVSS VL: DIRLTQSPSFLSASVGDRVTITCRASQGISSYLAWYQQKPGKAPKFLIYAASTLQSGVPSRFSGSGSGTEFTLTISSLQPEDFATYYCQQLNSYLTFGQGTRLEIK

No constants are given. Whether binding was seen depends on the method and setting. Binding calls can cover weak binding; strength is not graded here.
